13 molecules from the odorant receptor screen of Mainland et al. (2015) can be followed below.

Several values for one entry are separate records, joined by “and”; a condition that tells them apart may be missing. Equal values may be shown once. The list shows a part of the results. Each value is one well over the wells without odorant, computed here; the data are noisy.

What all share (assay): odorant receptor activation (CRE luciferase / Renilla) (fold of no-odor wells); higher = more activation
What all share (conditions): 100 µM

Assay [1] concerns OR1N2 W23R/V230G/T287M clone 1105.
Assay [2] relates to OR1N2 W37R/V244G/T301M clone 1350.
In assay [3] the test system is OR1N2 clone 1505.
For assay [4], the system named is OR1Q1 Q24R/I163M clone 1103.
In assay [5] the test system is OR1S1 clone 1455.
Assay [6] relates to OR1S2 I46T clone 1137.
In assay [7] the test system is OR2A1 clone 1078.
The test system of assay [8] is OR2A12 clone 1085.
In assay [9] the test system is OR2A14 Indel clone 1540.
The subject of assay [10] is OR2A14 clone 1083.
Assay [11] concerns OR2A2 F280L clone 1541.
The test system of assay [12] is OR2A2 clone 1476.
Assay [13] has as its system OR2A25 clone 1387.
Assay [14] deals with OR2A4 clone 1386.
Assay [15] deals with OR2A42 clone 1565.
Assay [16] relates to OR2A5 clone 1437.
Assay [17] has as its system OR2A7 clone 1077.
Assay [18] has as its system OR2A7 clone 1543.
Assay [19] has as its system OR2AE1 I77T clone 1079.
Assay [20] relates to OR2AG1 clone 1112.

As for `CCCCCCCCCC=O` [decyl aldehyde], the odorant receptor activation in assay [1] was 1.36; in assay [2], 1.26; in assay [3] it was 1.17; in [4], 1.25; in assay [5], 0.734; in assay [6] it was 1.35. Further, the odorant receptor activation in assay [7] turned out to be 0.925; in assay [8], 1.11; in assay [9], 1.53; in assay [10] it was 1.09; in assay [11] it was 1.23; in assay [12], 1.1. For the same molecule, the odorant receptor activation in [13] is 1.49; in assay [14], 1.36; in assay [15] it was 0.991; in assay [16] it was 1.67; in assay [17] it was 1.23; in [18] it was 1.24. In addition, the values for the odorant receptor activation in assay [19] and in [20] were 1.42 and 1.29, respectively.
As to `C=CCc1ccc(OC)c(OC)c1` [eugenol methyl ether], the odorant receptor activation in assay [1] was 1.44; in [2] it was 1.5; in assay [3], 1.3; in [4], 1.66; in assay [5] it was 0.738; in assay [6] it was 1.61. The odorant receptor activation in assay [7] amounted to 1.17; in assay [8], 1.4; in assay [9], 1.6; in assay [10] it was 1.49; in assay [11], 1.26; in [12] it was 1.74. Besides, the odorant receptor activation in assay [13] came out at 1.16; in [14] it was 1.78; in assay [15], 0.726; in [16], 1.54; in assay [17], 1.35; in assay [18], 1.37. Besides, the values for the odorant receptor activation in assay [19] and in [20] were 1.73 and 1.14, respectively.
With `O=CCc1ccccc1` [phenyl acetaldehyde], the odorant receptor activation in assay [1] stood at 1.31; in [2], 0.847; in assay [3], 1.42; in assay [4] it was 1.42; in assay [5] it was 1.15; in assay [6] it was 1.59. For the same molecule, the odorant receptor activation came to 1.02 in assay [7]; 0.852 in assay [8]; 1.17 in assay [9]; 1.35 in assay [10]; 1.13 in [11]; 1.28 in assay [12]. Moreover, the odorant receptor activation worked out at 1.96 in assay [13]; 2.26 in [14]; 1.58 in assay [15]; 1.9 in [16]; 1.21 in assay [17]; 1.07 in assay [18]. Also, the odorant receptor activation in assay [19] was 1.21; in [20], 1.03.
With `c1ccc(Oc2ccccc2)cc1` [diphenyl ether], the odorant receptor activation in [1] is 0.886; in [2], 1.02; in assay [3], 1.19; in [4] it was 1.21; in assay [5], 0.794; in assay [6] it was 1.04. The odorant receptor activation in assay [7] stood at 0.566; in assay [8], 0.881; in [9], 1.11; in [10], 1; in assay [11] it was 1.09; in [12] it was 1.05. For the same molecule, the odorant receptor activation worked out at 0.86 in assay [13]; 1.04 in assay [14]; 0.778 in assay [15]; 1.27 in assay [16]; 1.04 in assay [17]; 1.34 in assay [18]. In addition, the odorant receptor activation in [19] came out at 0.927; in [20] it was 1.03.
Turning to `CC(C)C=O` [isobutyraldehyde], the odorant receptor activation in [1] was 1.39; in assay [2] it was 1.15 and 0.824; in assay [3], 1 and 1.12; in [4], 2.48; in assay [5], 0.569; in assay [6], 1.46. Moreover, the odorant receptor activation in assay [7] is 0.846; in assay [8] it was 1.89; in [9], 1.05 and 1.12; in [10], 3.83; in assay [11], 1.17 and 1.05; in assay [12] it was 0.926 and 1.05. For the same molecule, the odorant receptor activation in assay [13] is 0.901; in assay [14], 0.763; in assay [15], 1.09; in [16], 1.02; in assay [17], 1.42; in assay [18] it was 1.43 and 0.712. Further, the odorant receptor activation in assay [19] is 0.854; in assay [20], 1.63.
As to `CC1=CCC(C(C)(C)O)CC1` (stereo not given) [terpineol], the odorant receptor activation in [1] is 1.54; in assay [2] it was 0.605; in [3] it was 0.916; in assay [4], 1.31; in assay [5], 1.11; in [6] it was 1.85. The odorant receptor activation came out at 0.939 in [7]; 0.877 in [8]; 0.873 in [9]; 1.25 in assay [10]; 0.983 in assay [11]; 0.891 in assay [12]. Besides, the odorant receptor activation in assay [13] worked out at 1.29; in [14], 1.23; in [15] it was 0.445; in assay [16], 1.05; in [17] it was 0.698; in assay [18], 0.868. In addition, the values for the odorant receptor activation in [19] and in assay [20] were 1.09 and 1.03, respectively.
On to `CCCCCCCC=CC=O` [2-decenal], for which the odorant receptor activation was 7.27 in [1]; 1.45 in assay [2]; 2.43 in assay [3]; 23.2 in [4]; 1.08 in assay [5]; 1.29 in assay [6]. Moreover, the odorant receptor activation in [7] is 4.14; in [8], 4.18; in assay [9], 1.55; in assay [10], 5.33; in [11], 1.61; in assay [12], 2.08. The odorant receptor activation in [13] amounted to 1.23; in assay [14], 1.88; in assay [15], 1.16; in [16] it was 0.797; in assay [17], 3.26; in assay [18], 1.36. For the same molecule, the odorant receptor activation was 21.7 in [19] and 9.87 in assay [20].
Regarding `CC(C)=CCCC(C)=CC=O` [citral], the odorant receptor activation is 1.28 in assay [1]; 1.12 in assay [2]; 0.884 in [3]; 1.1 in assay [4]; 1.08 in assay [5]; 0.986 in [6]. Besides, the odorant receptor activation in assay [7] is 0.926; in assay [8], 1.28; in assay [9], 1.09; in [10], 1.08; in [11], 1.07; in assay [12], 1.25. In addition, the odorant receptor activation in assay [13] was 0.275; in assay [14], 0.22; in assay [15], 1.17; in [16], 0.337; in assay [17] it was 0.934; in [18], 0.904. Besides, the odorant receptor activation in [19] turned out to be 1.08; in [20] it was 0.921.
Regarding `CC(C)C(=O)O` [isobutyric acid], the odorant receptor activation in assay [1] is 1.28; in [2], 1.12 and 0.775; in [3] it was 0.903 and 0.947; in [4], 1.11; in [5] it was 0.746; in assay [6], 0.941. Also, the odorant receptor activation in [7] is 0.991; in assay [8] it was 0.595; in [9], 1.02 and 0.814; in [10], 0.627; in assay [11], 1.17 and 0.871; in [12] it was 1.19 and 0.877. Moreover, the odorant receptor activation in [13] is 0.758; in [14], 0.714; in assay [15], 1.12; in assay [16], 0.769; in assay [17], 0.855; in [18] it was 1.02 and 0.712. The odorant receptor activation in [19] stood at 1.6; in [20], 1.38.
Regarding `CC(C)CC(=O)O` [isovaleric acid], the odorant receptor activation was determined as 1.07 in [1]; 0.811 in [2]; 1.01 in assay [3]; 1.09 in assay [4]; 0.732 in assay [5]; 1.65 in assay [6]. Besides, the odorant receptor activation in assay [7] stood at 1.3; in assay [8], 1.25; in assay [9], 0.746; in assay [10], 1.02; in assay [11], 0.73; in [12], 0.815. For the same molecule, the odorant receptor activation in assay [13] came to 1.14; in [14], 0.73; in assay [15], 1.13; in assay [16], 0.906; in [17], 0.938; in assay [18], 0.83. In addition, the odorant receptor activation in assay [19] turned out to be 1.4; in assay [20], 0.888.
As to `CC=Cc1ccc(O)c(OC)c1` [isoeugenol], the odorant receptor activation is 0.955 in assay [1]; 1.97 and 1.6 in assay [2]; 1.54 and 2.79 in assay [3]; 2.02 in assay [4]; 2.46 in assay [5]; 1.65 in assay [6]. Also, the odorant receptor activation in [7] is 0.964; in [8], 1.5; in assay [9], 0.988 and 2.06; in assay [10] it was 0.61; in assay [11], 1.18 and 2.13; in assay [12], 1.02 and 1.79. Besides, the odorant receptor activation in assay [13] was 1.69; in assay [14], 1.47; in assay [15], 1.55; in [16], 1.79; in assay [17], 1.15; in assay [18], 1.14 and 1.62. The odorant receptor activation in assay [19] was found to be 0.795; in assay [20], 1.61.
Regarding `CCCCCCCOC(C)=O` [heptyl acetate], the odorant receptor activation in [1] was 1.29; in [2] it was 1.29 and 0.93; in [3], 0.803 and 1.34; in [4], 1.07; in assay [5] it was 0.834; in [6], 0.819. Also, the odorant receptor activation in assay [7] was 0.842; in [8], 0.702; in [9], 1.09 and 1.25; in assay [10] it was 0.477; in assay [11] it was 1.33 and 1.5; in assay [12], 0.921 and 1.31. The odorant receptor activation in [13] is 0.968; in [14], 0.886; in assay [15], 0.741; in assay [16] it was 0.999; in [17], 0.948; in assay [18] it was 0.937 and 0.921. For the same molecule, the odorant receptor activation worked out at 1.04 in [19] and 1.34 in assay [20].
Regarding `C=C(C)C1CC=CCC1` (stereo not given) [r-limonene], the odorant receptor activation in assay [1] was 1.33 and 2.34; in [2], 0.554 and 0.94 and 0.795; in assay [3], 1.15 and 0.846 and 0.868; in assay [4], 1.44 and 0.905; in assay [5], 1.49; in assay [6], 1.4 and 0.478. Besides, the odorant receptor activation was 1.2 and 1.83 in assay [7]; 0.98 and 1.84 in assay [8]; 0.991 in [9]; 1.24 and 1.37 in assay [10]; 1.01 in assay [11]; 1.11 and 0.553 and 0.744 in assay [12]. For the same molecule, the odorant receptor activation was 1.39 and 1.03 in assay [13]; 1.51 and 0.859 in assay [14]; 0.789 in [15]; 1.6 and 1.01 in assay [16]; 1.08 and 0.562 in assay [17]; 0.962 in [18]. Also, the odorant receptor activation was 1.24 and 2.17 in assay [19]; 0.902 and 0.646 in [20].
